Measurements reported in PubChem BioAssay AID1508597 (Cure First, 2020).
Purpose: 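Knock-downs altering ovarian cancer cell survival with or without PARP inhibitor rucaparib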 (primary screen). Cells: human ovarian carcinoma lines grown from tumours: OCI-P5x (papillary serous) and OCI-C5x (clear cell). Reagent: siRNA pool against human genes, 1.25 pmol siRNA per well. Timing: 72 h or 96 h, depending on the cell culture. Conditions: rucaparib 20 µM (about IC30) or vehicle, present until read-out. Read-out: 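ATP luminescence measured at 72 or 96 h according to the culture, then normalised and expressed as percent viability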. Scale: viability, normalised: higher = more viable cells remaining. Call rule: 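a well counts as a hit if its normalised viability is under 80 percent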. Calls: active = viability under 80%; inactive = viability 80% or more.
The deposit covers about 2,100 reagents; this is an unselected part. 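Calls flag viability under 80% in either arm, not effects specific to rucaparib; the reference for percent is not stated.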 Entries without a mark were called inactive. Some reagents were tested in more than one well and are listed for each. Not stated in the record: the 100% reference.

no.	gene	PubChem SID	rucaparib or vehicle	cell line	technical replicate	viability, normalised (%)
1	TLK2 (tousled like kinase 2)	SID405526565	Rucaparib	OCI-C5x (clear cell)	1	54.2 (active)
2	TLK2 (tousled like kinase 2)	SID405526565	Rucaparib	OCI-C5x (clear cell)	1	60.6 (active)
3	TLK2 (tousled like kinase 2)	SID405526565	Rucaparib	OCI-C5x (clear cell)	2	56.1 (active)
4	TLK2 (tousled like kinase 2)	SID405526565	Rucaparib	OCI-C5x (clear cell)	2	40.1 (active)
5	TLK2 (tousled like kinase 2)	SID405526565	Rucaparib	OCI-C5x (clear cell)	3	45.9 (active)
6	TLK2 (tousled like kinase 2)	SID405526565	Rucaparib	OCI-C5x (clear cell)	3	58.9 (active)
7	TLK2 (tousled like kinase 2)	SID405526565	Rucaparib	OCI-P5x (serous)	1	62.3 (active)
8	TLK2 (tousled like kinase 2)	SID405526565	Rucaparib	OCI-P5x (serous)	1	103
9	TLK2 (tousled like kinase 2)	SID405526565	Rucaparib	OCI-P5x (serous)	2	85
10	TLK2 (tousled like kinase 2)	SID405526565	Rucaparib	OCI-P5x (serous)	2	48.5 (active)
11	TLK2 (tousled like kinase 2)	SID405526565	Rucaparib	OCI-P5x (serous)	3	54 (active)
12	TLK2 (tousled like kinase 2)	SID405526565	Rucaparib	OCI-P5x (serous)	3	78.2 (active)
13	TLK2 (tousled like kinase 2)	SID405526565	Vehicle	OCI-C5x (clear cell)	1	50.4 (active)
14	TLK2 (tousled like kinase 2)	SID405526565	Vehicle	OCI-C5x (clear cell)	1	57.5 (active)
15	TLK2 (tousled like kinase 2)	SID405526565	Vehicle	OCI-C5x (clear cell)	2	40.9 (active)
16	TLK2 (tousled like kinase 2)	SID405526565	Vehicle	OCI-C5x (clear cell)	2	47.4 (active)
17	TLK2 (tousled like kinase 2)	SID405526565	Vehicle	OCI-C5x (clear cell)	3	31.4 (active)
18	TLK2 (tousled like kinase 2)	SID405526565	Vehicle	OCI-C5x (clear cell)	3	51.2 (active)
19	TLK2 (tousled like kinase 2)	SID405526565	Vehicle	OCI-P5x (serous)	1	47.9 (active)
20	TLK2 (tousled like kinase 2)	SID405526565	Vehicle	OCI-P5x (serous)	1	62.7 (active)
21	TLK2 (tousled like kinase 2)	SID405526565	Vehicle	OCI-P5x (serous)	2	69.9 (active)
22	TLK2 (tousled like kinase 2)	SID405526565	Vehicle	OCI-P5x (serous)	2	58.7 (active)
23	TLK2 (tousled like kinase 2)	SID405526565	Vehicle	OCI-P5x (serous)	3	78.2 (active)
24	TLK2 (tousled like kinase 2)	SID405526565	Vehicle	OCI-P5x (serous)	3	62.3 (active)
25	SRPK2 (SRSF protein kinase 2)	SID405527934	Rucaparib	OCI-C5x (clear cell)	1	61.1 (active)
26	SRPK2 (SRSF protein kinase 2)	SID405527934	Rucaparib	OCI-C5x (clear cell)	2	50.1 (active)
27	SRPK2 (SRSF protein kinase 2)	SID405527934	Rucaparib	OCI-C5x (clear cell)	3	54.2 (active)
28	SRPK2 (SRSF protein kinase 2)	SID405527934	Rucaparib	OCI-P5x (serous)	1	91.3
29	SRPK2 (SRSF protein kinase 2)	SID405527934	Rucaparib	OCI-P5x (serous)	2	89.3
30	SRPK2 (SRSF protein kinase 2)	SID405527934	Rucaparib	OCI-P5x (serous)	3	86.7
31	SRPK2 (SRSF protein kinase 2)	SID405527934	Vehicle	OCI-C5x (clear cell)	1	115
32	SRPK2 (SRSF protein kinase 2)	SID405527934	Vehicle	OCI-C5x (clear cell)	2	72.5 (active)
33	SRPK2 (SRSF protein kinase 2)	SID405527934	Vehicle	OCI-C5x (clear cell)	3	69.1 (active)
34	SRPK2 (SRSF protein kinase 2)	SID405527934	Vehicle	OCI-P5x (serous)	1	88.8
35	SRPK2 (SRSF protein kinase 2)	SID405527934	Vehicle	OCI-P5x (serous)	2	78.2 (active)
36	SRPK2 (SRSF protein kinase 2)	SID405527934	Vehicle	OCI-P5x (serous)	3	81.5

Continued (6 carried over from the part before).
no.	gene	PubChem SID	rucaparib or vehicle	cell line	technical replicate	viability, normalised (%)
31	SRPK2 (SRSF protein kinase 2)	SID405527934	Vehicle	OCI-C5x (clear cell)	1	115
32	SRPK2 (SRSF protein kinase 2)	SID405527934	Vehicle	OCI-C5x (clear cell)	2	72.5 (active)
33	SRPK2 (SRSF protein kinase 2)	SID405527934	Vehicle	OCI-C5x (clear cell)	3	69.1 (active)
34	SRPK2 (SRSF protein kinase 2)	SID405527934	Vehicle	OCI-P5x (serous)	1	88.8
35	SRPK2 (SRSF protein kinase 2)	SID405527934	Vehicle	OCI-P5x (serous)	2	78.2 (active)
36	SRPK2 (SRSF protein kinase 2)	SID405527934	Vehicle	OCI-P5x (serous)	3	81.5
37	INTS3 (integrator complex subunit 3)	SID405528337	Rucaparib	OCI-C5x (clear cell)	1	51.3 (active)
38	INTS3 (integrator complex subunit 3)	SID405528337	Rucaparib	OCI-C5x (clear cell)	2	58.4 (active)
39	INTS3 (integrator complex subunit 3)	SID405528337	Rucaparib	OCI-C5x (clear cell)	3	54.2 (active)
40	INTS3 (integrator complex subunit 3)	SID405528337	Rucaparib	OCI-P5x (serous)	1	84.2
41	INTS3 (integrator complex subunit 3)	SID405528337	Rucaparib	OCI-P5x (serous)	2	75.8 (active)
42	INTS3 (integrator complex subunit 3)	SID405528337	Rucaparib	OCI-P5x (serous)	3	74.8 (active)
43	INTS3 (integrator complex subunit 3)	SID405528337	Vehicle	OCI-C5x (clear cell)	1	96.8
44	INTS3 (integrator complex subunit 3)	SID405528337	Vehicle	OCI-C5x (clear cell)	2	60.8 (active)
45	INTS3 (integrator complex subunit 3)	SID405528337	Vehicle	OCI-C5x (clear cell)	3	52.2 (active)
46	INTS3 (integrator complex subunit 3)	SID405528337	Vehicle	OCI-P5x (serous)	1	72.1 (active)
47	INTS3 (integrator complex subunit 3)	SID405528337	Vehicle	OCI-P5x (serous)	2	92.2
48	INTS3 (integrator complex subunit 3)	SID405528337	Vehicle	OCI-P5x (serous)	3	75.3 (active)
49	CHD5 (chromodomain helicase DNA binding protein 5)	SID405528104	Rucaparib	OCI-C5x (clear cell)	1	47.1 (active)
50	CHD5 (chromodomain helicase DNA binding protein 5)	SID405528104	Rucaparib	OCI-C5x (clear cell)	2	44.8 (active)
51	CHD5 (chromodomain helicase DNA binding protein 5)	SID405528104	Rucaparib	OCI-C5x (clear cell)	3	46.1 (active)
52	CHD5 (chromodomain helicase DNA binding protein 5)	SID405528104	Rucaparib	OCI-P5x (serous)	1	50.2 (active)
53	CHD5 (chromodomain helicase DNA binding protein 5)	SID405528104	Rucaparib	OCI-P5x (serous)	2	88.5
54	CHD5 (chromodomain helicase DNA binding protein 5)	SID405528104	Rucaparib	OCI-P5x (serous)	3	45.1 (active)
55	CHD5 (chromodomain helicase DNA binding protein 5)	SID405528104	Vehicle	OCI-C5x (clear cell)	1	45.1 (active)
56	CHD5 (chromodomain helicase DNA binding protein 5)	SID405528104	Vehicle	OCI-C5x (clear cell)	2	54.4 (active)
57	CHD5 (chromodomain helicase DNA binding protein 5)	SID405528104	Vehicle	OCI-C5x (clear cell)	3	34.1 (active)
58	CHD5 (chromodomain helicase DNA binding protein 5)	SID405528104	Vehicle	OCI-P5x (serous)	1	65.4 (active)
59	CHD5 (chromodomain helicase DNA binding protein 5)	SID405528104	Vehicle	OCI-P5x (serous)	2	77.9 (active)
60	CHD5 (chromodomain helicase DNA binding protein 5)	SID405528104	Vehicle	OCI-P5x (serous)	3	54.4 (active)
